The values that follow come from PubChem BioAssay AID2685 (National Center for Advancing Translational Sciences (NCATS), 2010).

For orientation: AC50 means the midpoint of the concentration-response curve, whichever way the signal moves. Read a high AC50 as activity only at high concentration.

Each structure is given as a SMILES string. The list shows a part of the results. Further columns of the screen follow, without active or inactive calls. Most of these compounds were active or inconclusive in the main read-out, so they are no random draw. The note in brackets gives the kind of curve behind each potency; many fits are weak.

The nature of this assay: qHTS Assay for Lipid Storage Modulators in Drosophila S3 Cells.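 As to cell number change: cells counted by Cell Tracker Red CMTPX staining in the red channel.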 Particulars: BODIPY lipid droplet fluorescence, 18-24 h; for cell number change: measured here: cell count max response, cells fed with added oleic acid. The essentials: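 Drosophila S3 cells loaded with oleic acid (400 uM, as added) and compounds at several concentrations; lipid droplets imaged by 488-nm laser-scanning cytometry, 500–530 nm intensity and object ratio to cell channel. Percent activity normalized to 20 uM Triacsin C.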
A general note: qHTS replaces the single test concentration by a dilution series.

The mark [1] stands for this setting: measured here: lipid fluorescence (Fed channel) AC50, cells fed with added oleic acid.
The mark [2] stands for this setting: measured here: cell number channel AC50, cells fed with added oleic acid.

On to `COc1ccc(NC(=O)c2cncc(Br)c2)cc1S(N)(=O)=O`, for which the cell number change was -3.52%. Under setting [1], the AC50 is 0.13 µM [falling, full curve, poor fit].

In the case of `Cc1nn(Cc2ccc(F)cc2)c(C)c1NC(=O)C1c2ccccc2Oc2ccccc21`, the cell number change was -33.3%. Also, the AC50 under setting [2] is 13 µM [falling, partial curve, poor fit]. Under setting [1], the AC50 is 20.6 µM [falling, partial curve].

Consider `Cn1ccnc1C1CCCCN1C(=O)c1cc(COc2ccc(F)cc2Cl)on1` (stereo unspecified), for which the cell number change is -5.86%. The concentration at half-maximal activity (AC50) under setting [1] is 0.92 µM [rising, single point].

As to `COC(C(=O)Nc1ccnn1C1CCN(C(=O)c2ccc(C)cc2)CC1)c1ccccc1` (stereo unspecified), under setting [2], the AC50 was 6.51 µM [falling, partial curve].

In the case of `CC1CN(C(=O)c2cc3c(=O)n4ccccc4nc3s2)CC(C)O1` (stereo unspecified), the cell number change was determined as 10.9%. Moreover, the concentration at half-maximal activity (AC50) under setting [1] was 14.6 µM [rising, single point].

As for `COc1ccc(NC(=O)Nc2cccc3ccccc23)c(OC)c1`, the cell number change amounted to 22.6%. In addition, the AC50 under setting [1] was 5.8 µM [rising, partial curve].

As to `O=S(=O)(NCCc1ccccc1)c1ccc(Br)cc1`, the cell number change is -7.94%. The half-maximal activity concentration (AC50) under setting [1] was 0.291 µM [rising, full curve, poor fit].

For `O=C(COC(=O)c1ccc(O)cc1)Nc1ccc(Cl)cc1`, the cell number change worked out at 32.5%.

With `Cc1ccc(S(=O)(=O)N2[C@@H](c3ccccc3F)C(C(=O)O)=CC[C@H]2c2cccc(C)c2)cc1`, the cell number change is -21.6%.

Consider `CCOc1ccc(S(=O)(=O)NC(C)C)cc1C(N)=O`, for which the cell number change was determined as 19.3%. Besides, the AC50 under setting [2] is 0.116 µM [falling, full curve, poor fit]. For the same compound, the AC50 under setting [1] was 0.092 µM [falling, full curve, poor fit].

Consider `N=C1CCCN1CC(=O)c1cccs1`, for which the cell number change was -9.24%. In addition, the half-maximal activity concentration (AC50) under setting [2] was 2.59 µM [rising, single point].

Turning to `Cc1ccc(-n2nc(C)c(C(=O)Nc3cccc(C(=O)NC4CC4)c3)n2)c(C)c1`, the cell number change was -9.8%. The AC50 under setting [1] is 0.82 µM [rising, single point].

Take `COc1ccc2[nH]cc(CCNC(=O)c3ccc([N+](=O)[O-])cc3)c2c1`: the cell number change is -6.01%. The concentration at half-maximal activity (AC50) under setting [1] was 5.17 µM [falling, single point].

For `COc1ccc(Oc2c(C)nc(SCC(=O)c3ccc(Cl)cc3)[nH]c2=O)cc1`, the cell number change is -8.13%. The concentration at half-maximal activity (AC50) under setting [2] is 0.103 µM [falling, full curve, poor fit].

Consider `CC[n+]1ccccc1/C=C/c1ccc(N(C)C)cc1`, for which the cell number change was -104%. The AC50 under setting [2] is 20.6 µM [falling, partial curve]. Moreover, under setting [1], the AC50 was 18.4 µM [falling, partial curve].

Regarding `COc1ccc(C)cc1NC(=O)COC(=O)c1ccc2ccccc2n1`, the cell number change is -2.63%. Also, the AC50 under setting [1] is 18.4 µM [rising, single point].

Consider `C=CCn1c(N)cc(=O)nc1SCC(=O)Nc1ccc(C(=O)OC)cc1`, for which the cell number change is -1.39%. Also, the AC50 under setting [1] was 29.1 µM [rising, single point].

For the compound `COc1ccccc1N=Nc1nc(-c2ccccc2)c(-c2ccccc2)[nH]1`, the cell number change was -34.1%. Besides, under setting [2], the AC50 was 29.1 µM [falling, single point]. Further, the AC50 under setting [1] was 25.9 µM [falling, single point].

As for `O=C(CCCN1CCC(c2ccccc2)C1)c1ccc2c(c1)OCCO2` (stereo unspecified), the cell number change is 15.1%. Moreover, the concentration at half-maximal activity (AC50) under setting [1] is 4.11 µM [falling, single point].

With `Cc1cc(NC(=O)CSc2nc3ccccc3c(=O)n2Cc2ccccc2)no1`, the cell number change worked out at 28.6%. Moreover, the half-maximal activity concentration (AC50) under setting [2] was 0.82 µM [rising, full curve, poor fit]. Besides, the AC50 under setting [1] is 1.84 µM [rising, full curve].

Turning to `CCOc1ccc(Br)cc1/C=N/O`, the cell number change is 98%. Further, the AC50 under setting [2] was 29.1 µM [rising, single point].

For `COc1ccc(Cl)cc1C(=O)Nc1ccc(NC(=O)c2ccco2)cc1`, the cell number change amounted to 21.8%. Besides, the AC50 under setting [2] is 0.13 µM [rising, full curve, poor fit].

As for `COc1ccc2nc3ccccc3nc2c1N`, the cell number change was -49%. For the same compound, the AC50 under setting [2] is 32.6 µM [falling, single point].

For the compound `CN1CCN(c2ccc(NC(=O)c3ccc4c(c3)OCCO4)cc2)CC1`, the cell number change was 8.6%.

As to `COc1cc2ccc(=O)oc2c(O[C@@H]2O[C@H](CO)[C@@H](O)[C@H](O)[C@H]2O)c1O`, the cell number change turned out to be 1.39%. Also, under setting [1], the AC50 was 29.1 µM [falling, partial curve, poor fit].

In the case of `CC(Cc1ccccc1)NC(=O)CN1C(=O)c2ccccc2S1(=O)=O` (stereo unspecified), the cell number change stood at 34.6%. For the same compound, the AC50 under setting [1] is 0.291 µM [rising, partial curve, poor fit].

For `CCc1nnc(NC(=O)[C@@H]2CCCN2S(=O)(=O)c2ccc3c(c2)OCCO3)s1`, the cell number change was -2.76%. In addition, the concentration at half-maximal activity (AC50) under setting [1] was 6.51 µM [falling, partial curve].

Consider `CS(=O)(=O)N(Cc1ccccc1)c1ccccc1C(=O)O`, for which the cell number change is -17.7%. Under setting [1], the AC50 is 3.26 µM [falling, full curve, poor fit].

Regarding `COc1ccc(C(=O)Nc2c(Cl)cc(Cl)cc2C(=O)N2CCC(C)CC2)cc1`, the cell number change came out at 4.08%. Moreover, under setting [1], the half-maximal activity concentration (AC50) was 4.11 µM [rising, single point].

For the compound `Cc1nn(-c2ccc(Cl)cc2Cl)c(C)c1C(=O)O`, the cell number change was found to be 15.6%.

Regarding `O=S(=O)(c1cccc(-c2n[nH]c(=S)n2Cc2ccccc2)c1)N1CCOCC1`, the cell number change was found to be 9.29%. In addition, under setting [2], the AC50 was 4.11 µM [rising, single point]. For the same compound, the AC50 under setting [1] was 14.6 µM [rising, single point].

Regarding `CCCn1c(=O)c2ccccc2n2c(=S)[nH]nc12`, the cell number change was -47.6%. The concentration at half-maximal activity (AC50) under setting [2] is 11.6 µM [falling, partial curve]. Further, the AC50 under setting [1] was 14.6 µM [falling, partial curve].

On to `Cc1ccccc1Nc1c(-c2ccncc2)nc2ccc(Br)cn12`, for which the cell number change came to 4.65%. Further, the AC50 under setting [1] is 13 µM [rising, partial curve, poor fit].

As to `COc1cccc(COC(=O)C2CCN(S(=O)(=O)c3ccc(C)cc3)CC2)c1OC`, the cell number change worked out at 31.7%. In addition, the AC50 under setting [2] is 11.6 µM [rising, single point]. Under setting [1], the AC50 is 20.6 µM [rising, single point].

Turning to `Cc1nc2ccc(Cl)cc2c(-c2ccccc2Cl)c1CC(=O)O`, the cell number change was 1.64%. Besides, the AC50 under setting [1] is 13 µM [rising, partial curve, poor fit].

For `CCOc1ccc(C2=Nn3c(nnc3-c3ccccc3OC)SC2)cc1`, the cell number change was -12.2%.

Regarding `O=C(N/N=C/c1ccc(OC(F)F)cc1OC(F)F)NC1CCCCC1`, the cell number change was -45.2%. In addition, under setting [2], the AC50 is 2.31 µM [rising, partial curve].
